Measured values: the supplement of paper PMC7661543
Differences between knockout arms are mostly noise.

System: BT-20
Assay: relative cell number vs DMSO control (72 h) (% of DMSO); higher = less growth inhibition (more cells)
Procedure: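 QMAP-Seq: a pool of 5 breast cancer cell lines (ZR-75-1, SKBR3, HCC-38, MDA-MB-231, BT-20), each carrying 12 doxycycline-inducible Cas9 sgRNA perturbations (11 knockouts plus non-targeting sgNT), was treated with compounds for 72 h at four 10-fold doses (10 nM-10 uM or 1 nM-1 uM range). Barcodes were amplified and sequenced, and cell number was interpolated from 293T spike-in standard curves. The result is expressed as % of the median of DMSO wells. Two biological replicates.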

CCOC(=O)[C@@]1(CCCCCCOc2ccc(Cl)cc2)CO1 [Etomoxir]
Settings	relative cell number
sgRNA knockout: sgATF3, 10 nM	87.1
sgRNA knockout: sgATF3, 100 nM	91.6
sgRNA knockout: sgATF3, 1000 nM	109
sgRNA knockout: sgATF3, 10000 nM	101
sgRNA knockout: sgATF4, 10 nM	102
sgRNA knockout: sgATF4, 100 nM	102.95
sgRNA knockout: sgATF4, 1000 nM	112
sgRNA knockout: sgATF4, 10000 nM	115
sgRNA knockout: sgATF6, 10 nM	82.8
sgRNA knockout: sgATF6, 100 nM	103
sgRNA knockout: sgATF6, 1000 nM	99.1
sgRNA knockout: sgATF6, 10000 nM	91.9
sgRNA knockout: sgATG7, 10 nM	82.2
sgRNA knockout: sgATG7, 100 nM	101
sgRNA knockout: sgATG7, 1000 nM	99.6
sgRNA knockout: sgATG7, 10000 nM	104
sgRNA knockout: sgERN1, 10 nM	98.4
sgRNA knockout: sgERN1, 100 nM	92.2
sgRNA knockout: sgERN1, 1000 nM	104
sgRNA knockout: sgERN1, 10000 nM	93
sgRNA knockout: sgHSF1, 10 nM	83.78
sgRNA knockout: sgHSF1, 100 nM	94.6
sgRNA knockout: sgHSF1, 1000 nM	103
sgRNA knockout: sgHSF1, 10000 nM	101
sgRNA knockout: sgHSF2, 10 nM	90.8
sgRNA knockout: sgHSF2, 100 nM	102
sgRNA knockout: sgHSF2, 1000 nM	90.8
sgRNA knockout: sgHSF2, 10000 nM	107
sgRNA knockout: sgKEAP1, 10 nM	85.6
sgRNA knockout: sgKEAP1, 100 nM	96.2
sgRNA knockout: sgKEAP1, 1000 nM	106
sgRNA knockout: sgKEAP1, 10000 nM	95.7
sgRNA knockout: sgNFE2L2, 10 nM	105
sgRNA knockout: sgNFE2L2, 100 nM	91
sgRNA knockout: sgNFE2L2, 1000 nM	106
sgRNA knockout: sgNFE2L2, 10000 nM	89.3
sgRNA knockout: sgSLC35F2, 10 nM	95.1
sgRNA knockout: sgSLC35F2, 100 nM	93.6
sgRNA knockout: sgSLC35F2, 1000 nM	99.1
sgRNA knockout: sgSLC35F2, 10000 nM	95
sgRNA knockout: sgXBP1, 10 nM	95.02
sgRNA knockout: sgXBP1, 100 nM	91.33
sgRNA knockout: sgXBP1, 1000 nM	107
sgRNA knockout: sgXBP1, 10000 nM	100

COc1cc([C@@H]2c3cc4c(cc3[C@@H](O[C@@H]3O[C@@H]5CO[C@@H](C)O[C@H]5[C@H](O)[C@H]3O)[C@H]3COC(=O)[C@H]23)OCO4)cc(OC)c1O [Etoposide]
Settings	relative cell number
sgRNA knockout: sgATF3, 10 nM	78.7
sgRNA knockout: sgATF3, 100 nM	77.9
sgRNA knockout: sgATF3, 1000 nM	57
sgRNA knockout: sgATF3, 10000 nM	36
sgRNA knockout: sgATF4, 10 nM	70.1
sgRNA knockout: sgATF4, 100 nM	85
sgRNA knockout: sgATF4, 1000 nM	60.1
sgRNA knockout: sgATF4, 10000 nM	32.5
sgRNA knockout: sgATF6, 10 nM	68.7
sgRNA knockout: sgATF6, 100 nM	85.9
sgRNA knockout: sgATF6, 1000 nM	56.3
sgRNA knockout: sgATF6, 10000 nM	26.5
sgRNA knockout: sgATG7, 10 nM	76.9
sgRNA knockout: sgATG7, 100 nM	88.6
sgRNA knockout: sgATG7, 1000 nM	56.8
sgRNA knockout: sgATG7, 10000 nM	33.3
sgRNA knockout: sgERN1, 10 nM	67.8
sgRNA knockout: sgERN1, 100 nM	81.8
sgRNA knockout: sgERN1, 1000 nM	59
sgRNA knockout: sgERN1, 10000 nM	31.8
sgRNA knockout: sgHSF1, 10 nM	62
sgRNA knockout: sgHSF1, 100 nM	77.7
sgRNA knockout: sgHSF1, 1000 nM	47
sgRNA knockout: sgHSF1, 10000 nM	27.9
sgRNA knockout: sgHSF2, 10 nM	63.9
sgRNA knockout: sgHSF2, 100 nM	99.8
sgRNA knockout: sgHSF2, 1000 nM	76.6
sgRNA knockout: sgHSF2, 10000 nM	44.8
sgRNA knockout: sgKEAP1, 10 nM	76.4
sgRNA knockout: sgKEAP1, 100 nM	79.5
sgRNA knockout: sgKEAP1, 1000 nM	60.7
sgRNA knockout: sgKEAP1, 10000 nM	38.2
sgRNA knockout: sgNFE2L2, 10 nM	60.5
sgRNA knockout: sgNFE2L2, 100 nM	75.3
sgRNA knockout: sgNFE2L2, 1000 nM	41.9
sgRNA knockout: sgNFE2L2, 10000 nM	21.2
sgRNA knockout: sgSLC35F2, 10 nM	83.1
sgRNA knockout: sgSLC35F2, 100 nM	82.6
sgRNA knockout: sgSLC35F2, 1000 nM	65.756
sgRNA knockout: sgSLC35F2, 10000 nM	36.6
sgRNA knockout: sgXBP1, 10 nM	63.5
sgRNA knockout: sgXBP1, 100 nM	79.9
sgRNA knockout: sgXBP1, 1000 nM	53.3
sgRNA knockout: sgXBP1, 10000 nM	24.4

CO[C@H]1C[C@@H]2CC[C@@H](C)[C@@](O)(O2)C(=O)C(=O)N2CCCC[C@H]2C(=O)O[C@H]([C@H](C)C[C@@H]2CC[C@@H](OCCO)[C@H](OC)C2)CC(=O)[C@H](C)/C=C(\C)[C@@H](O)[C@@H](OC)C(=O)[C@H](C)C[C@H](C)/C=C/C=C/C=C/1C [Everolimus]
Settings	relative cell number
sgRNA knockout: sgATF3, 1 nM	59.3
sgRNA knockout: sgATF3, 10 nM	50.1
sgRNA knockout: sgATF3, 100 nM	56.8
sgRNA knockout: sgATF3, 1000 nM	72
sgRNA knockout: sgATF4, 1 nM	54.2
sgRNA knockout: sgATF4, 10 nM	60.8
sgRNA knockout: sgATF4, 100 nM	60.3
sgRNA knockout: sgATF4, 1000 nM	64.8
sgRNA knockout: sgATF6, 1 nM	57.3
sgRNA knockout: sgATF6, 10 nM	49.5
sgRNA knockout: sgATF6, 100 nM	59.6
sgRNA knockout: sgATF6, 1000 nM	75.4
sgRNA knockout: sgATG7, 1 nM	57.3
sgRNA knockout: sgATG7, 10 nM	56.5
sgRNA knockout: sgATG7, 100 nM	57.7
sgRNA knockout: sgATG7, 1000 nM	64.7
sgRNA knockout: sgERN1, 1 nM	49.2
sgRNA knockout: sgERN1, 10 nM	52.4
sgRNA knockout: sgERN1, 100 nM	56.8
sgRNA knockout: sgERN1, 1000 nM	63.1
sgRNA knockout: sgHSF1, 1 nM	49.4
sgRNA knockout: sgHSF1, 10 nM	45.7
sgRNA knockout: sgHSF1, 100 nM	56.2
sgRNA knockout: sgHSF1, 1000 nM	59.6
sgRNA knockout: sgHSF2, 1 nM	66.8
sgRNA knockout: sgHSF2, 10 nM	48.3
sgRNA knockout: sgHSF2, 100 nM	51.1
sgRNA knockout: sgHSF2, 1000 nM	66.2
sgRNA knockout: sgKEAP1, 1 nM	61.2
sgRNA knockout: sgKEAP1, 10 nM	58.4
sgRNA knockout: sgKEAP1, 100 nM	64.5
sgRNA knockout: sgKEAP1, 1000 nM	66.6
sgRNA knockout: sgNFE2L2, 1 nM	58.2
sgRNA knockout: sgNFE2L2, 10 nM	50.6
sgRNA knockout: sgNFE2L2, 100 nM	54.8
sgRNA knockout: sgNFE2L2, 1000 nM	64.1
sgRNA knockout: sgSLC35F2, 1 nM	58.3
sgRNA knockout: sgSLC35F2, 10 nM	54.6
sgRNA knockout: sgSLC35F2, 100 nM	59.03
sgRNA knockout: sgSLC35F2, 1000 nM	64
sgRNA knockout: sgXBP1, 1 nM	57
sgRNA knockout: sgXBP1, 10 nM	54.1
sgRNA knockout: sgXBP1, 100 nM	59.6
sgRNA knockout: sgXBP1, 1000 nM	62.9
